According to patent US11951204B2 (S-SKIN. CO., LTD., priority 2022, dated 2024):
Where a sequence shows no end group, the ends are not given. Some peptides are written in HELM: one residue between dots, names in brackets for other building blocks, links after the first $. Ends that are not written are not given here. * marks the point of attachment. FITC = O=C1OC2(c3ccc(O)cc3Oc3cc(O)ccc32)c2ccc(NC(=S)*)cc21; Ahx = NCCCCCC(=O)O

Test: peptide synthesis
Conditions: whole synthesis

Row | Substance | purity (crude or final not stated)
1 | KRRWRKIPKR | 98.23%
2 | RLRLRQRRRR | 95.11%
3 | YGRKRRQRRR | 99.53%
4 | {FITC-Ahx}-RKRWLRKPRP | 95.55%
5 | {FITC-Ahx}-RLRLRQRRRR | 95.39%
6 | KTTKSRLRLRQRRRR | 95.83%
7 | {FITC-Ahx}-KRRWRKIPKR | 95.19%
8 | PEPTIDE1{[Pal].K.T.T.K.S}$$$$V2.0 | 97.60%
9 | RLRLRQRRRRKTTKS | 96.31%
10 | H-KTTKS-OH | 99.00%
11 | RKRWLRKPRP | 97.97%
